PubChem BioAssay AID743454 | Peter MacCallum Cancer Centre – 2014

Test: 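Search for knock-downs that restore vorinostat killing in resistant colon cancer cells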 (primary screen)
System: human HCT116-VR colon cancer cells, selected for vorinostat resistance
Reagents: siRNA pool against human genes, 40 nM siRNA pool
Time to read-out: vorinostat for 24 h, read-out about 72 h after transfection
Conditions: vorinostat at 2.5 µM final
Measurement: 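Two measures, CellTiter-Fluor viability and luminescent caspase 3/7 activity, each as fold change against same-plate mock wells, mean of duplicates, then screen-wide robust z-score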
Scale: viability robust z-score: higher = more viable cells than screen typical; caspase robust z-score: higher = more caspase 3/7 activity than screen typical
Rule for the call: 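a knock-down is a hit when classed RV1 or RV2 for lowered viability, or CA1 or CA2 for caspase activation; those lethal without drug were dropped; hits were retested singly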
The deposit covers about 18,000 reagents; shown is a random part of them. 450 of all reagents (2.5%) count as active. 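Single biological run; no consistent viability z cut-off exists, so the class columns, not z-scores, define the calls.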

gene | viability hit class | caspase hit class | viability robust z-score | caspase robust z-score | Call
NEURL2 (neuralized E3 ubiquitin protein ligase 2) | no change | no change | 0.5 | -0.3 | inactive
RAD51D (RAD51 paralog D) | no change | no change | 1.08 | -0.4 | inactive
RNF186 (ring finger protein 186) | no change | CA1 (caspase activation) | -1.46 | 10.8 | active
TMC8 (transmembrane channel like 8) | no change | no change | -1.22 | -0.43 | inactive
CACYBP (calcyclin binding protein) | no change | no change | 1.03 | -0.94 | inactive
KLRB1 (killer cell lectin like receptor B1) | no change | no change | 2.31 | -0.6 | inactive
RNF19A (ring finger protein 19A, RBR E3 ubiquitin protein ligase) | no change | no change | -0.22 | -0.82 | inactive
CNN1 (calponin 1) | no change | no change | -0.48 | 1.27 | inactive
CDKL5 (cyclin dependent kinase like 5) | no change | no change | -0.16 | -0.94 | inactive
GSS (glutathione synthetase) | no change | no change | -0.78 | 1.51 | inactive
FAM81A (family with sequence similarity 81 member A) | no change | no change | 0.18 | 1.38 | inactive
ARFGEF2 (ARF guanine nucleotide exchange factor 2) | no change | no change | 0.13 | -0.92 | inactive
CMTR2 (cap methyltransferase 2) | no change | no change | 0.44 | -0.67 | inactive
SCAMP5 | no change | no change | 0.12 | 0.55 | inactive
CCDC124 (coiled-coil domain containing 124) | no change | no change | 0.08 | 0.72 | inactive
MEGF11 (multiple EGF like domains 11) | no change | no change | 0.6 | 1.02 | inactive
SOCS5 (suppressor of cytokine signaling 5) | no change | no change | -1.34 | 0.63 | inactive
NOSTRIN (nitric oxide synthase trafficking) | no change | no change | -1.4 | 3.56 | inactive
FSCN3 (fascin actin-bundling protein 3) | no change | no change | -0.06 | 0.74 | inactive
HEATR5B (HEAT repeat containing 5B) | no change | no change | 0.15 | -0.35 | inactive
PRDM12 (PR/SET domain 12) | no change | no change | -0.1 | 1.02 | inactive
BORA (BORA aurora kinase A activator) | no change | no change | 0.04 | -0.46 | inactive
ARID4B (AT-rich interaction domain 4B) | no change | no change | 1.58 | -0.54 | inactive
LOC652759 (retired record) | no change | no change | -0.71 | 1.15 | inactive
CETP (cholesteryl ester transfer protein) | no change | no change | 1.73 | 0.71 | inactive
ATP2B1 (ATPase plasma membrane Ca2+ transporting 1) | no change | no change | 1.19 | -0.68 | inactive
NIN (ninein) | no change | no change | 1.36 | -0.99 | inactive
PLA2G15 (phospholipase A2 group XV) | no change | no change | 0.12 | 0.92 | inactive
TAS2R8 (taste 2 receptor member 8) | no change | no change | -0.23 | 0.34 | inactive
PURG (purine rich element binding protein G) | no change | no change | 0.92 | -0.84 | inactive
CFAP157 (cilia and flagella associated protein 157) | no change | no change | 0.18 | 0.52 | inactive
KLHL28 (kelch like family member 28) | no change | no change | 0.54 | -0.28 | inactive
RABGGTA (Rab geranylgeranyltransferase subunit alpha) | no change | no change | -1.2 | 2.58 | inactive
TENT4A (terminal nucleotidyltransferase 4A) | no change | no change | -0.08 | -1.19 | inactive
SHMT2 (serine hydroxymethyltransferase 2) | no change | no change | -0.3 | 2.12 | inactive
AAAS (aladin WD repeat nucleoporin) | no change | no change | -0.24 | 0.54 | inactive
CSN3 (casein kappa) | no change | no change | -0.84 | 0.35 | inactive
ALOX12B (arachidonate 12-lipoxygenase, 12R type) | no change | no change | 0.3 | -0.99 | inactive
WDR4 | no change | no change | 0.31 | 0.24 | inactive
FBXW11 (F-box and WD repeat domain containing 11) | no change | no change | 0.98 | 1.18 | inactive
MSRA (methionine sulfoxide reductase A) | no change | no change | -1.19 | 0.46 | inactive
CASKIN1 (CASK interacting protein 1) | no change | no change | 0.57 | -0.49 | inactive
TRAPPC10 (trafficking protein particle complex subunit 10) | no change | no change | 0.16 | -1.34 | inactive
CD8A (CD8 subunit alpha) | no change | no change | 0.74 | 3.68 | inactive
ELAC2 (elaC ribonuclease Z 2) | no change | no change | -1 | -0.98 | inactive
EXOSC6 (exosome component 6) | no change | no change | -1.67 | 3.22 | inactive
LSM8 (LSM8 homolog, U6 small nuclear RNA associated) | no change | no change | -1.5 | 0.69 | inactive
PIGT (phosphatidylinositol glycan anchor biosynthesis class T) | no change | no change | -0.76 | -0.76 | inactive
ASPHD2 (aspartate beta-hydroxylase domain containing 2) | no change | no change | 0.97 | 0.8 | inactive
TUBGCP2 (tubulin gamma complex component 2) | no change | no change | 0.2 | 1.96 | inactive
CTNNA2 (catenin alpha 2) | no change | no change | -0.18 | -0.3 | inactive
UBD (ubiquitin like modifier D) | no change | no change | -1.09 | 1.98 | inactive
C1orf94 (chromosome 1 open reading frame 94) | no change | no change | -0.89 | 2.2 | inactive
KRTAP10-12 (keratin associated protein 10-12) | no change | no change | -0.48 | 2.66 | inactive
KCNJ10 (potassium inwardly rectifying channel subfamily J member 10) | no change | no change | 0.29 | 0.4 | inactive
RALGPS1 (Ral GEF with PH domain and SH3 binding motif 1) | no change | no change | 1.02 | -0.66 | inactive
TNFSF9 (TNF superfamily member 9) | no change | no change | 1.31 | 0.56 | inactive
H2BC17 (H2B clustered histone 17) | no change | no change | -1.3 | 2.6 | inactive
CHCHD5 (coiled-coil-helix-coiled-coil-helix domain containing 5) | no change | no change | -0.1 | 1.64 | inactive
POGK (pogo transposable element derived with KRAB domain) | no change | no change | 1.05 | -0.77 | inactive
TTLL1 (TTL family tubulin polyglutamylase complex subunit L1) | no change | no change | -0.84 | -0.17 | inactive
MAP3K3 (mitogen-activated protein kinase kinase kinase 3) | no change | no change | 0.74 | 0.47 | inactive
TSPO2 (translocator protein 2) | no change | no change | -0.27 | 3.02 | inactive
UBE2I (ubiquitin conjugating enzyme E2 I) | no change | no change | -0.46 | 1.02 | inactive
TSLIG3A (tRNA splicing ligase complex subunit 3A) | no change | no change | -0.9 | 3.27 | inactive
HSPB3 (heat shock protein family B (small) member 3) | no change | no change | -0.36 | 4.99 | inactive
SLC6A9 | no change | no change | -0.26 | 1.31 | inactive
KBTBD12 (kelch repeat and BTB domain containing 12) | no change | no change | 0.7 | 0.19 | inactive
CABYR (calcium binding tyrosine phosphorylation regulated) | no change | no change | 0.2 | -0.4 | inactive
MTFP1 (mitochondrial fission process 1) | no change | no change | 0.8 | -0.64 | inactive
VTCN1 (V-set domain containing T cell activation inhibitor 1) | no change | no change | 0.81 | 0.15 | inactive
MZF1 (myeloid zinc finger 1) | no change | no change | -0.06 | 0.6 | inactive
GTSE1 (G2 and S-phase expressed 1) | no change | no change | 0.28 | 0.74 | inactive

No new results follow: 6 of the entries above.
gene | viability hit class | caspase hit class | viability robust z-score | caspase robust z-score | Call
CETP (cholesteryl ester transfer protein) | no change | no change | 1.73 | 0.71 | inactive
ATP2B1 (ATPase plasma membrane Ca2+ transporting 1) | no change | no change | 1.19 | -0.68 | inactive
NIN (ninein) | no change | no change | 1.36 | -0.99 | inactive
PLA2G15 (phospholipase A2 group XV) | no change | no change | 0.12 | 0.92 | inactive
TAS2R8 (taste 2 receptor member 8) | no change | no change | -0.23 | 0.34 | inactive
PURG (purine rich element binding protein G) | no change | no change | 0.92 | -0.84 | inactive
